Experimental data published in paper PMC4273968.
Results are given in words; binding and its absence hold for the method and conditions named. Binding seen in cells or lysates may run through a third protein. Some binding calls cover weakened binding; strength is not graded here. Tags and fused reporters may be left off the sequences shown.

Target: T1, myc-tagged C160, the largest subunit of Pol III (S. cerevisiae) (UniProt P04051)
T1 sequence: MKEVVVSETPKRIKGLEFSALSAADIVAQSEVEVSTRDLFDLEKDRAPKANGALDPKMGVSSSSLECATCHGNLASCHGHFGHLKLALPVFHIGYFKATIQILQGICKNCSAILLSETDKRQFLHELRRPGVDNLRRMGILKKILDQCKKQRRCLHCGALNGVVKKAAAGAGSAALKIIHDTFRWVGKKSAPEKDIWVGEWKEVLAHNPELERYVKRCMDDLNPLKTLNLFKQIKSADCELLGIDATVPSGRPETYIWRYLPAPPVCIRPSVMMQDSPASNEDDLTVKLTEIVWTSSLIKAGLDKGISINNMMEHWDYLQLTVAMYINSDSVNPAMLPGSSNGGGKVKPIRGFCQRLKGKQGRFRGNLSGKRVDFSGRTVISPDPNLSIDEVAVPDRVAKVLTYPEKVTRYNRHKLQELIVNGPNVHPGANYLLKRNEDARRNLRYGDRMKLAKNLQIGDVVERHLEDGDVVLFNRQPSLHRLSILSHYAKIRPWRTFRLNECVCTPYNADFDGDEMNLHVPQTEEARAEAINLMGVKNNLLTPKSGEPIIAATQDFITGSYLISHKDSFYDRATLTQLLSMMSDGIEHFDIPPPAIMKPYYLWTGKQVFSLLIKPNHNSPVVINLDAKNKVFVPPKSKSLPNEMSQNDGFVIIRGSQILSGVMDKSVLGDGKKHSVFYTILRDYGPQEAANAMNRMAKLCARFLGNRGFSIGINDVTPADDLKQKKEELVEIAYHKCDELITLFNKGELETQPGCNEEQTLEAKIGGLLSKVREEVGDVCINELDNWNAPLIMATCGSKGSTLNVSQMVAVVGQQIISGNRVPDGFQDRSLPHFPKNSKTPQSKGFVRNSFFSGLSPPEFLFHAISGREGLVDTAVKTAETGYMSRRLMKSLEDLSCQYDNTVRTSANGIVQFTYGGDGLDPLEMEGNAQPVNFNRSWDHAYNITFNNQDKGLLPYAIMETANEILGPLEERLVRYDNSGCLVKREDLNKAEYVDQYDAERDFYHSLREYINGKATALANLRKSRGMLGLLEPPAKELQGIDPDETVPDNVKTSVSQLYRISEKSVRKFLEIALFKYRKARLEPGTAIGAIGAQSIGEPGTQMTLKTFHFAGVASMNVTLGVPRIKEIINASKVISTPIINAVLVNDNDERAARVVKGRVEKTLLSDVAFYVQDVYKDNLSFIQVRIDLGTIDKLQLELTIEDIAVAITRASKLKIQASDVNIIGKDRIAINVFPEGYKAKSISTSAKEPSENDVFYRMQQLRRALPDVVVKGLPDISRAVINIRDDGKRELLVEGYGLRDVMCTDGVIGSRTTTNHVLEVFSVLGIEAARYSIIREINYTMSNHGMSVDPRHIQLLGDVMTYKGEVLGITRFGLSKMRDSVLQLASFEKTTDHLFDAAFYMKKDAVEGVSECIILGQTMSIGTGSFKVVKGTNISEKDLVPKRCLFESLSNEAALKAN
Assay: co-IP; protein extracts of cells expressing C160-13myc, with (WT) or without Sub1 (sub1Δ), grown in YPD: exponential phase, day1 and day5 stationary phase, 0.25 h to 6 h after inoculation into fresh medium; magnetic beads coated with anti-myc; immunoblot with anti-myc or anti-Maf1

B1: Maf1 (protein, UniProt P41910 1-395)
chain: MKFIDELDIERVNQTLNFETNDCKIVGSCDIFTTKAVASDRKLYKTIDQHLDTILQENENYNATLQQQLAAPETNQSPCSSPFYSNRRDSNSFWEQKRRISFSEYNSNNNTNNSNGNSSNNNNYSGPNGSSPATFPKSAKLNDQNLKELVSNYDSGSMSSSSLDSSSKNDERIRRRSSSSISSFKSGKSSNNNYSSGTATNNVNKRRKSSINERPSNLSLGPFGPINEPSSRKIFAYLIAILNASYPDHDFSSVEPTDFVKTSLKTFISKFENTLYSLGRQPEEWVWEVINSHMTLSDCVLFQYSPSNSFLEDEPGYLWNLIGFLYNRKRKRVAYLYLICSRLNSSTGEVEDALAKKPQGKLIIDDGSNEYEGEYDFTYDENVIDDKSDQEESLQ
For B1, the binding was “binds”.
